The name of at least one read-out is uncertain.
Experiments:
Experiment in all cases: Inhibition by synthetic peptides of binding of radiolabelled monoclonal antibody to CS protein (radioimmunoassay)
Design in all cases: species or system mouse
monoclonal antibody 8B8 = conditions: radiolabelled 8B8 binding to the CS protein P. knowlesi; head prints (x5); read-out: Molar concentration of peptide (x5) necessary for 50% inhibition of binding of monoclonal antibody 8B8
monoclonal antibody 2G3 = conditions: radiolabelled 2G3 binding to the CS protein P. knowlesi; head prints (x5); read-out: Molar concentration of peptide (x5) necessary for 50% inhibition of binding of monoclonal antibody 2G3
monoclonal antibody 5H8 = conditions: radiolabelled 5H8 binding to the CS protein P. knowlesi; head prints (x5); read-out: Molar concentration of peptide (x5) necessary for 50% inhibition of binding of monoclonal antibody 5H8

Row | Substance | IC50 (monoclonal antibody 8B8) [pM] | IC50 (monoclonal antibody 2G3) [pM] | IC50 (monoclonal antibody 5H8) [pM]
1 | Asp₅-Gly-Ala-Asn-Ala-Gly-Gln-Pro₁₂ [5 - 12] | 1 | 10 | 10
2 | H-QAQGDGANAGQP-OH [Peptide 12-MER] | 1 | – | 1

From EP0134242B1, “[…] ANTIGEN” (NEW YORK UNIVERSITY, priority 1983, dated 1984)
